Patent US9089133B2, “Insecticide for agricultural or horticultural use and method of use thereof” (MITSUI CHEMICALS, INC., priority 2003, dated 2015)
Some results were stated once for a whole list of compounds, not compound by compound.

Experiments:
[1] = system: Common Cutworm (Spodoptera litura); assay: Insecticidal test for common cutworm (cabbage leaf dip); type: in vivo; settings: 1000 ppm; cabbage leaf immersed 30 seconds; 2nd-instar larvae; 25° C.; three days after
[2] = system: Diamondback Moth (Plutella xylostella); assay: Insecticidal test for diamondback moth (cabbage leaf dip); type: in vivo; settings: 1000 ppm; cabbage leaf immersed 30 seconds; 2nd-instar larvae; 25° C.; three days after

`Cc1cc(C(F)(C(F)(F)F)C(F)(F)C(F)(F)F)cc(C)c1NC(=O)c1cccc(NC(=O)OCC(F)F)c1` (stereo not shown) [compound 254] was tested, and the mortality [1] was ≥ 70% and the mortality [2] was ≥ 70%.
`CCSCCOC(=O)Nc1cccc(C(=O)Nc2c(C)cc(C(F)(C(F)(F)F)C(F)(F)F)cc2C)c1` [compound 109] was tested, and the mortality [1] was ≥ 70% and the mortality [2] was ≥ 70%.
With `Cc1cc(C(F)(C(F)(F)F)C(F)(F)F)cc(C)c1NC(=O)c1cccc(NC(=O)OCC(F)(F)F)c1` [compound 118] the mortality [1] was ≥ 70% and the mortality [2] was ≥ 70%.
For `CCc1cc(C(F)(C(F)(F)F)C(F)(F)F)cc(CC)c1NC(=O)c1cccc(NC(=O)OC(C)C)c1` [compound 174], the mortality [1] was ≥ 70% and the mortality [2] was ≥ 70%.
For `Cc1cc(OC(C(F)(F)F)C(F)(F)F)nc(Br)c1NC(=O)c1cccc(NC(=O)OCC(Cl)(Cl)Cl)c1` [compound 1039], the mortality [1] was ≥ 70% and the mortality [2] was ≥ 70%.
With `Cc1cc(C(F)(C(F)(F)F)C(F)(F)F)cc(C)c1NC(=O)c1cc(NC(=O)OCC(Cl)(Cl)Cl)ccn1` [compound 2165] the mortality [1] was ≥ 70% and the mortality [2] was ≥ 70%.
`Cc1c(Cl)c(C(F)(C(F)(F)F)C(F)(F)F)cc(Cl)c1NC(=O)c1cccc(NC(=O)OCC(Cl)(Cl)Cl)c1` [compound 217] was tested, and the mortality [1] was ≥ 70% and the mortality [2] was ≥ 70%.
For `C=COC(=O)Nc1cccc(C(=O)Nc2c(C)cc(C(F)(C(F)(F)F)C(F)(F)F)cc2C)c1` [compound 75], the mortality [1] was ≥ 70% and the mortality [2] was ≥ 70%.
For `O=C(Nc1cccc(C(=O)Nc2c(Br)cc(SC(F)(F)F)cc2Br)c1)OCCC(F)(F)F` [compound 464], the mortality [1] was ≥ 70% and the mortality [2] was ≥ 70%.
With `Cc1cc(C(F)(C(F)(F)F)C(F)(F)C(F)(F)F)cc(C)c1NC(=O)c1cccc(NC(=O)OC(CF)CF)c1` (stereo not shown) [compound 255] the mortality [1] was ≥ 70% and the mortality [2] was ≥ 70%.
For `CCOC(=O)Nc1cccc(C(=O)Nc2c(C)cc(C(F)(C(F)(F)F)C(F)(F)F)cc2C)c1` [compound 60], the mortality [1] was ≥ 70% and the mortality [2] was ≥ 70%.
With `Cc1cc(C(F)(C(F)(F)F)C(F)(F)F)cc(C)c1NC(=O)c1cc(NC(=O)OCC(Cl)(Cl)Cl)cc(N(C)C)c1` [compound 1929] the mortality [1] was ≥ 70% and the mortality [2] was ≥ 70%.
In the case of `Cc1cc(C(F)(C(F)(F)F)C(F)(F)F)cc(C)c1NC(=O)c1cc(NC(=O)OC(C)C)cc(C(F)(F)F)c1` [compound 1926], the mortality [1] was ≥ 70% and the mortality [2] was ≥ 70%.
With `O=C(Nc1cccc(C(=O)Nc2c(Br)cc([S+]([O-])C(F)(F)C(F)(F)C(F)(F)F)cc2Br)c1)OCC(Cl)(Cl)Cl` (stereo not shown) [compound 706] the mortality [1] was ≥ 70% and the mortality [2] was ≥ 70%.
In the case of `COC(=O)Nc1cccc(C(=O)Nc2c(C)cc(C(F)(C(F)(F)F)C(F)(F)F)cc2C)c1` [compound 59], the mortality [1] was ≥ 70% and the mortality [2] was ≥ 70%.
With `Cc1cc(OC(C(F)(F)F)C(F)(F)F)nc(Cl)c1NC(=O)c1cccc(NC(=O)OCC(Cl)(Cl)Cl)c1` [compound 992] the mortality [1] was ≥ 70% and the mortality [2] was ≥ 70%.
`Cc1cc(C(F)(C(F)(F)F)C(F)(F)F)cc(C)c1NC(=O)c1cccc(NC(=O)OCC(Br)(Br)Br)c1` [Compound No. 138] was tested, and the mortality [1] was ≥ 70% and the mortality [2] was ≥ 70%.
`O=C(Nc1cccc(C(=O)Nc2c(Br)cc(Cl)cc2C(F)(F)F)c1)OCC(Cl)(Cl)Cl` [compound 915] was tested, and the mortality [1] was ≥ 70% and the mortality [2] was ≥ 70%.
With `Cc1cc(C(F)(C(F)(F)F)C(F)(F)F)cc(C)c1NC(=O)c1cccc(NC(=O)OCc2ccoc2)c1` [compound 156] the mortality [1] was ≥ 70% and the mortality [2] was ≥ 70%.
With `CCc1cc(C(F)(C(F)(F)F)C(F)(F)F)cc(I)c1NC(=O)c1cccc(NC(=O)OCC(Cl)(Cl)Cl)c1` [compound 207] the mortality [1] was ≥ 70% and the mortality [2] was ≥ 70%.
In the case of `Cc1cc(OC(C(F)(F)F)C(F)(F)F)nc(C)c1NC(=O)c1cccc(NC(=O)OC(C)C)c1` [compound 932], the mortality [1] was ≥ 70% and the mortality [2] was ≥ 70%.
`O=C(Nc1cccc(C(=O)Nc2ccc(I)cc2C(F)(F)F)c1)OCC(Cl)(Cl)Cl` [compound 867] was tested, and the mortality [1] was ≥ 70% and the mortality [2] was ≥ 70%.
For `O=C(Nc1cccc(C(=O)Nc2c(Cl)cc(SC(F)(F)C(F)(F)C(F)(F)F)cc2Cl)c1)OCC(Cl)(Cl)Cl` [compound 424], the mortality [1] was ≥ 70% and the mortality [2] was ≥ 70%.
With `O=C(Nc1cccc(C(=O)Nc2c(Br)cc(C(F)(F)C(F)(F)F)cc2Br)c1)OCC(Cl)(Cl)Cl` [compound 236] the mortality [1] was ≥ 70% and the mortality [2] was ≥ 70%.
With `Cc1cc(C(F)(C(F)(F)F)C(F)(F)F)cc(C)c1NC(=O)c1cccc(NC(=O)OC(C)C)[n+]1[O-]` [compound 2061] the mortality [1] was ≥ 70% and the mortality [2] was ≥ 70%.
`O=C(Nc1cccc(C(=O)Nc2c(Br)cc(SC(F)(F)C(F)(F)F)cc2Br)c1)OCC(Cl)(Cl)Cl` [compound 565] was tested, and the mortality [1] was ≥ 70% and the mortality [2] was ≥ 70%.
With `Cc1cc(C(F)(C(F)(F)F)C(F)(F)F)cc(Cl)c1N(C)C(=O)c1cccc(NC(=O)OCC(Cl)(Cl)Cl)c1` [compound 1953] the mortality [1] was ≥ 70% and the mortality [2] was ≥ 70%.
`Cc1cc(C(O)(C(F)(F)Cl)C(F)(F)Cl)cc(C)c1NC(=O)c1cccc(NC(=O)OCC(Cl)(Cl)Cl)c1` [compound 873] was tested, and the mortality [1] was ≥ 70% and the mortality [2] was ≥ 70%.
`O=C(Nc1cccc(C(=O)Nc2c(Br)cc(C(F)(F)F)cc2C(F)(F)F)c1)OCC(Cl)(Cl)Cl` [compound 232] was tested, and the mortality [1] was ≥ 70% and the mortality [2] was ≥ 70%.
For `O=C(Nc1cccc(C(=O)Nc2c(Br)cc(SC(F)(F)F)cc2Br)c1)OCC(Cl)(Cl)Cl` [compound 471], the mortality [1] was ≥ 70% and the mortality [2] was ≥ 70%.
For `Cc1cc(C(F)(C(F)(F)F)C(F)(F)F)cc(C)c1NC(=O)c1cccc(NC(=O)OCC(Cl)(Cl)Cl)c1` [compound 132], the mortality [1] was ≥ 70% and the mortality [2] was ≥ 70%.
With `CCCc1cc(C(F)(C(F)(F)F)C(F)(F)F)cc(Cl)c1NC(=O)c1cccc(NC(=O)OC(C)C)c1` [compound 181] the mortality [1] was ≥ 70% and the mortality [2] was ≥ 70%.
With `CCOC(=O)Nc1cccc(C(=O)Nc2c(C)cc(C(F)(C(F)(F)F)C(F)(F)F)cc2C)c1F` [compound 1388] the mortality [1] was ≥ 70% and the mortality [2] was ≥ 70%.
`O=C(Nc1cccc(C(=O)Nc2c(Br)cc(S(=O)(=O)C(F)(F)F)cc2Br)c1)OCC(Cl)(Cl)Cl` [compound 518] was tested, and the mortality [1] was ≥ 70% and the mortality [2] was ≥ 70%.
`O=C(Nc1cccc(C(=O)Nc2ccc(C(F)(F)F)cc2C(F)(F)F)c1)OCC(Cl)Cl` [compound 246] was tested, and the mortality [1] was ≥ 70% and the mortality [2] was ≥ 70%.
With `CC(C)OC(=O)Nc1cccc(C(=O)Nc2c(Cl)cc(C(F)(C(F)(F)F)C(F)(F)F)c3c2CCCC3)c1` [compound 922] the mortality [1] was ≥ 70% and the mortality [2] was ≥ 70%.
In the case of `Cc1cc(C(F)(C(F)(F)F)C(F)(F)F)ccc1NC(=O)c1cccc(NC(=O)OCC(Cl)(Cl)Cl)c1` [Compound No. 20], the mortality [1] was ≥ 70% and the mortality [2] was ≥ 70%.
For `CSCC(C)OC(=O)Nc1cccc(C(=O)Nc2c(C)cc(C(F)(C(F)(F)F)C(F)(F)F)cc2C)c1` (stereo not shown) [compound 111], the mortality [1] was ≥ 70% and the mortality [2] was ≥ 70%.
For `O=C(Nc1cccc(C(=O)Nc2c(Cl)cc(S(F)(F)(F)(F)F)cc2Cl)c1)OCCC(F)(F)F` [compound 919], the mortality [1] was ≥ 70% and the mortality [2] was ≥ 70%.
`CCCCc1cc(C(F)(C(F)(F)F)C(F)(F)F)cc(Br)c1NC(=O)c1cccc(NC(=O)OCCC(F)(F)F)c1` [compound 221] was tested, and the mortality [1] was ≥ 70% and the mortality [2] was ≥ 70%.
For `CCCc1cc(C(F)(C(F)(F)F)C(F)(F)F)cc(Cl)c1NC(=O)c1cccc(NC(=O)OCC(Cl)(Cl)Cl)c1` [compound 208], the mortality [1] was ≥ 70% and the mortality [2] was ≥ 70%.
`Cc1cc(C(F)(C(F)(F)F)C(F)(F)F)cc(I)c1NC(=O)c1cccc(NC(=O)OC(C)C)c1` [compound 1292] was tested, and the mortality [1] was ≥ 70% and the mortality [2] was ≥ 70%.
`O=C(Nc1cccc(C(=O)Nc2c(Cl)cc(S(=O)(=O)C(F)(C(F)(F)F)C(F)(F)F)cc2Cl)c1)OCC(Cl)(Cl)Cl` [compound 899] was tested, and the mortality [1] was ≥ 70% and the mortality [2] was ≥ 70%.
With `Cc1cc(C(F)(C(F)(F)F)C(F)(F)F)cc(C(C)C)c1NC(=O)c1cccc(NC(=O)OC(C)C)c1` [compound 176] the mortality [1] was ≥ 70% and the mortality [2] was ≥ 70%.
For `Cc1cc(C(F)(C(F)(F)F)C(F)(F)F)cc(C)c1NC(=O)c1cccc(NC(=O)OCCCC(F)(F)F)c1` [compound 126], the mortality [1] was ≥ 70% and the mortality [2] was ≥ 70%.
In the case of `CCc1cc(C(F)(C(F)(F)F)C(F)(F)F)cc(C)c1NC(=O)c1cccc(NC(=O)OC(C)C)c1` [compound 175], the mortality [1] was ≥ 70% and the mortality [2] was ≥ 70%.
In the case of `Cc1cc(C(F)(C(F)(F)F)C(F)(F)F)cc(C)c1NC(=O)c1cccc(NC(=O)OCc2ccc(C#N)cc2)c1` [Compound No. 85, N-(2,6-dimethyl-4-heptafluoroisopropyl)phenyl 3-[(4-cyanobenzyl)oxycarbonylamino]benzamide], the mortality [1] was ≥ 70% and the mortality [2] was ≥ 70%.
For `Cc1cc(C(F)(C(F)(F)F)C(F)(F)F)cc(C)c1NC(=O)c1cccc(NC(=O)OCc2ccccn2)c1` [compound 161], the mortality [1] was ≥ 70% and the mortality [2] was ≥ 70%.
With `Cc1cc(C(F)(C(F)(F)F)C(F)(F)F)cc(Cl)c1N(C)C(=O)c1cccc(NC(=O)OC(C)C)c1` [compound 1952] the mortality [1] was ≥ 70% and the mortality [2] was ≥ 70%.
In the case of `Cc1cc(C(F)(C(F)(F)F)C(F)(F)F)cc(C)c1NC(=O)c1cccc(NC(=O)OC(C)C)c1` [compound 62], the mortality [1] was ≥ 70% and the mortality [2] was ≥ 70%.
With `Cc1cc(C(F)(C(F)(F)F)C(F)(F)F)cc(C)c1NC(=O)c1cccc(NC(=O)OCC(F)F)c1` [compound 117] the mortality [1] was ≥ 70% and the mortality [2] was ≥ 70%.
In the case of `Cc1cc(C(F)(C(F)(F)F)C(F)(F)F)cc(C)c1NC(=O)c1cccc(NC(=O)OC(C)(C)C)c1` [compound 66], the mortality [1] was ≥ 70% and the mortality [2] was ≥ 70%.
For `CCN(C(=O)c1cccc(NC(=O)OCC(Cl)(Cl)Cl)c1)c1c(C)cc(C(F)(C(F)(F)F)C(F)(F)F)cc1C` [compound 1956], the mortality [1] was ≥ 70% and the mortality [2] was ≥ 70%.
